In patent US12522647B2, “Beta-arrestin mutants” (PAUL SCHERRER INSTITUT, priority 2019, dated 2026):

Test system: HEK293 cells
Test: Expression level of GFP-fused arrestin-3 constructs by GFP fluorescence in a plate reader
Type: cell-based, human
Conditions: for GFP levels compared to WT (%): expression level in HEK293 cells, GFP fluorescence excited at 485 nm, averaged over two assays, normalized to WT

Molecule	Decrease in expression compared to WT arrestin-3 (expression in cells)	GFP levels compared to WT (%)	GFP levels compared to WT (%) (listed as double mutant A)	GFP levels compared to WT (%) (listed as triple mutant C)
Double mutant A: Arrestin-3 double mutant containing T299A and I386A when compared to human wt arrestin-3	74%	36%	36%	–
Triple mutant C: Arrestin-3 triple mutant containing T299A, I386A and D298A when compared to human wt arrestin-3 (protein, Arrestin-3 triple mutant C containing T299A, I386A and D298A) MGEKPGTRVFKKSSPNCKLTVYLGKRDFVDHLDKVDPVDGVVLVDPDYLKDRKVFVTLTCAFRYGREDLDVLGLSFRKDLFIATYQAFPPVPNPPRPPTRLQDRLLRKLGQHAHPFFFTIPQNLPCSVTLQPGPEDTGKACGVDFEIRAFCAKSLEEKSHKRNSVRLVIRKVQFAPEKPGPQPSAETTRHFLMSDRSLHLEASLDKELYYHGEPLNVNVHVTNNSTKTVKKIKVSVRQYADICLFSTAQYKCPVAQLEQDDQVSPSSTFCKVYTITPLLSDNREKRGLALDGKLKHEAANLASSTIVKEGANKEVLGILVSYRVKVKLVVSRGGDVSVELPFVLMHPKPHDHIPLPRPQSAAPETDVPVDTNLIEFDTNYATDDDAVFEDFARLRLKGMKDDDYDDQLC	–	55%	–	55%
Triple mutant B: Arrestin-3 triple mutant containing T299A, I386A and R166A when compared to human wt arrestin-3 (protein, Arrestin-3 triple mutant B containing T299A, I386A and R166A) MGEKPGTRVFKKSSPNCKLTVYLGKRDFVDHLDKVDPVDGVVLVDPDYLKDRKVFVTLTCAFRYGREDLDVLGLSFRKDLFIATYQAFPPVPNPPRPPTRLQDRLLRKLGQHAHPFFFTIPQNLPCSVTLQPGPEDTGKACGVDFEIRAFCAKSLEEKSHKRNSVALVIRKVQFAPEKPGPQPSAETTRHFLMSDRSLHLEASLDKELYYHGEPLNVNVHVTNNSTKTVKKIKVSVRQYADICLFSTAQYKCPVAQLEQDDQVSPSSTFCKVYTITPLLSDNREKRGLALDGKLKHEDANLASSTIVKEGANKEVLGILVSYRVKVKLVVSRGGDVSVELPFVLMHPKPHDHIPLPRPQSAAPETDVPVDTNLIEFDTNYATDDDAVFEDFARLRLKGMKDDDYDDQLC	–	35%	–	–
Triple mutant D: Arrestin-3 triple mutant containing T299A, I386A and R393A when compared to human wt arrestin-3 (protein, Arrestin-3 triple mutant D containing T299A, I386A and R393A) MGEKPGTRVFKKSSPNCKLTVYLGKRDFVDHLDKVDPVDGVVLVDPDYLKDRKVFVTLTCAFRYGREDLDVLGLSFRKDLFIATYQAFPPVPNPPRPPTRLQDRLLRKLGQHAHPFFFTIPQNLPCSVTLQPGPEDTGKACGVDFEIRAFCAKSLEEKSHKRNSVRLVIRKVQFAPEKPGPQPSAETTRHFLMSDRSLHLEASLDKELYYHGEPLNVNVHVTNNSTKTVKKIKVSVRQYADICLFSTAQYKCPVAQLEQDDQVSPSSTFCKVYTITPLLSDNREKRGLALDGKLKHEDANLASSTIVKEGANKEVLGILVSYRVKVKLVVSRGGDVSVELPFVLMHPKPHDHIPLPRPQSAAPETDVPVDTNLIEFDTNYATDDDAVFEDFAALRLKGMKDDDYDDQLC	–	26%	–	–
